We go through 32 compounds from PubChem BioAssay AID1487 (National Center for Advancing Translational Sciences (NCATS), 2009).

This assay in a line: qHTS Assay for Modulators of Lamin A Splicing. The note with it: HeLa LMNA splicing GFP/RFP minigene ratio, 48 h. In short, it runs like this:
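Read-out is the ratio of GFP to DsRed2 object intensity, acquired by 488 nm laser-scanning cytometry on HeLa lamin A-EGFP minigene reporter cells. Compound incubation 48 hrs at 37 °C in Opti-MEM with 2% FBS; DMSO 0.5% final.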

Where [1] appears, read: measured here: GFP splicing reporter channel.
The mark [2] stands for this setting: measured here: RFP viability control channel.

The other results are listed elsewhere or left out. Shown are side measurements of this screen, not its main read-out; they come without a call. Most of these compounds were active or inconclusive in the main read-out, so they are no random draw. Words in brackets tell the shape of the fitted curve; partial curves, single points and poor fits give uncertain potencies.

Consider `C=CCn1c(SCc2ccc(C#N)cc2)nnc1-c1cccc(OC)c1`, for which the AC50 by setting is: under setting [1], 8.91 µM [rising, partial curve, poor fit]; under setting [2], 15.8 µM [rising, partial curve].
`COc1cc(C(=O)c2ccccc2)c(OC)cc1C(=O)Nc1ccc(O)cc1`: the AC50 reads like this: under setting [1], 7.08 µM [falling, full curve]; under setting [2], 7.94 µM [falling, full curve, poor fit].
As to `CCOC(=O)c1c(NC(=O)Cn2cnc([N+](=O)[O-])n2)sc2c1CCCC2`, the AC50 under setting [2] was 12.6 µM [rising, partial curve, poor fit].
As to `O=C(Cc1ccccc1)N/N=C/c1ccc2cccc(O)c2n1`, the AC50 is, setting by setting: under setting [1], 14.1 µM [falling, partial curve, poor fit]; under setting [2], 28.2 µM [falling, partial curve].
`CC1=N/C(=C/c2ccco2)C(=O)O1`: the AC50 runs as follows: under setting [1], 6.31 µM [rising, single point]; under setting [2], 0.891 µM [falling, partial curve].
Regarding `O=C(CCn1cnc(-c2ccccc2)c1-c1ccccc1)N/N=C/c1ccc(O)cc1`, the AC50 under setting [2] was 35.5 µM [rising, single point].
As for `CC(C)(C)C1CCC2(CC1)C(C#N)=C(SCC(=O)NC1CCCCC1)NC(=O)C2C#N` (centres undefined), the AC50 under setting [2] is 8.91 µM [rising, partial curve, poor fit].
Turning to `CCC(CC)C(=O)Nc1nnc2n1CCS2`, the AC50 was 0.0251 µM [rising, full curve, poor fit] under setting [1] and 0.0282 µM [rising, full curve, poor fit] under setting [2].
Take `O=c1cc(-c2c(F)c(F)c(F)c(F)c2F)oc2c(F)c(F)c(F)c(F)c12`: the AC50 under setting [2] is 35.5 µM [rising, single point].
On the same count and under the same terms, next, `COC(=O)[C@@H]1CCCN1C(=O)CCc1nnc(CCC2CCCCC2)o1`: 10 µM [falling, partial curve].
Same read-out and setting: next, `Cc1ccc(C)c(S(=O)(=O)N/N=C/c2ccc(F)cc2)c1`: 0.355 µM [falling, full curve, poor fit].
For the compound `N#Cc1ccc2c(c1)N(CCCN1CCC(O)CC1)c1ccccc1S2`, the AC50 under setting [1] is 20 µM [falling, partial curve] and the AC50 under setting [2] was 0.00631 µM [falling, full curve, poor fit].
Regarding `COc1cccc(Cc2nc3ccccc3nc2SCC(=O)Nc2ccccc2F)c1`, the AC50 is, setting by setting: under setting [1], 7.94 µM [falling, partial curve, poor fit]; under setting [2], 28.2 µM [falling, partial curve].
Regarding `O=C(CCC1CCCCC1)N1CCN(Cc2ccc3c(c2)OCO3)CC1`, the AC50 under setting [2] is 35.5 µM [rising, single point].
The same measure, in the same setting: the figure for `COC(=O)c1ccc2c(=O)n(-c3ccccc3)c(SCN3C(=O)c4ccccc4C3=O)nc2c1` is 0.0708 µM [falling, full curve, poor fit]; for `Cc1ccc(S(=O)(=O)CCC(=O)c2ccc(O)cc2O)cc1` it is 22.4 µM [rising, single point].
On to `COc1ccc(C(C)=O)c(Oc2nc(CN3CCOCC3)nc3scc(-c4cccs4)c23)c1`, for which the AC50 runs as follows: under setting [1], 2.82 µM [rising, full curve, poor fit]; under setting [2], 3.98 µM [rising, single point].
In the case of `CCC1(c2ccccc2)C(=O)NCNC1=O`, the AC50 under setting [1] was 3.98 µM [rising, full curve, poor fit].
For `Cc1ccc(-c2nc(N)sc2-c2ccccc2)cc1C`, the concentration at half-maximal activity (AC50) under setting [1] is 17.8 µM [rising, partial curve] and the AC50 under setting [2] is 25.1 µM [rising, partial curve].
Consider `N#CC(Nc1ccccc1)c1ccccc1OCc1ccccc1` (centres undefined), for which the AC50 under setting [2] is 35.5 µM [rising, single point].
Regarding `CCn1c(COc2c(C)cccc2C)nnc1SCC(=O)N1CCN(c2ccccc2)CC1`, the AC50 is 4.47 µM [rising, partial curve] under setting [1] and 3.98 µM [rising, full curve] under setting [2].
Turning to `CCOC(=O)C1CCCN(CC(=O)Nc2c(C(=O)OC)[nH]c3ccccc23)C1` (centres undefined), the AC50 runs as follows: under setting [1], 1.58 µM [rising, full curve, poor fit]; under setting [2], 2.82 µM [rising, partial curve].
Turning to `C=CCSc1nnc(NC(=O)c2cn(CC)c3nc(C)ccc3c2=O)s1`, the AC50 under setting [1] was 0.282 µM [falling, full curve].
With `Cc1ccc(CNCC(O)(c2ccccc2)c2ccc(F)cc2)cc1` (centres undefined), the AC50 under setting [1] is 17.8 µM [falling, single point] and the AC50 under setting [2] was 25.1 µM [falling, single point].
As for `CCN(CC)S(=O)(=O)c1nnc(NC(=O)COc2cccc(C)c2)s1`, the AC50 under setting [2] is 0.00282 µM [falling, full curve, poor fit].
Turning to `Cc1ccccc1N1CCN(CCCN2C(=O)CC(=C(c3ccccc3)c3ccccc3)C2=O)CC1`, the AC50 is 8.91 µM [rising, partial curve, poor fit] under setting [1] and 12.6 µM [rising, partial curve] under setting [2].
With `Cc1ccc(-n2c(SCC(=O)c3c(N)n(C)c(=O)n(C)c3=O)nc3sc4c(c3c2=O)CCCC4)c(C)c1`, the AC50 is, setting by setting: under setting [1], 1.12 µM [rising, partial curve]; under setting [2], 4.47 µM [rising, full curve].
On to `CC(=O)Oc1ccc(-c2cccc(C(=O)OCC(=O)Nc3ccccc3Oc3ccccc3)c2)cc1`, for which the AC50 under setting [2] is 15.8 µM [rising, partial curve].
With `COc1ccc(CCNC(=O)CCCCCn2c(SCC(N)=O)nc3cc4c(cc3c2=O)OCO4)cc1OC`, the AC50 reads like this: under setting [1], 0.00316 µM [rising, full curve, poor fit]; under setting [2], 11.2 µM [rising, partial curve].
As for `Cc1ccc2nc(N3C(=O)C(O)=C(C(=O)c4cc5ccccc5o4)C3c3cccs3)sc2c1` (centres undefined), under setting [2], the AC50 is 31.6 µM [rising, single point].
Take `N/C(=N\OC(=O)c1ccc(Cl)cc1[N+](=O)[O-])c1cccnc1`: the AC50 is, setting by setting: under setting [1], 15.8 µM [falling, partial curve, poor fit]; under setting [2], 11.2 µM [falling, partial curve].
As to `COC(=O)C1=C(C(=O)OC)[C@@H]2N(Cc3ccccc3)c3ccccc3[C@@]23C[C@@H](C(=O)OC)N(S(=O)(=O)c2ccc(C(F)(F)F)cc2)C3=N1`, the AC50 was 0.141 µM [rising, full curve, poor fit] under setting [1] and 1.78 µM [rising, single point] under setting [2].

Broadly, the AC50 is the concentration at which the activity in the assay is half-maximal.
